We go through one molecule from publication PMC7411624.

This assay deals with V5-tagged Ae. aegypti Dicer 2 (Dcr2) (Ae. aegypti) (UniProt Q49LL4). Nature of the assay: affinity purification with mass spectrom.

These are yes or no findings as the source states them, for the method shown. Binding seen in cells or lysates may run through a third protein. Here binding means that the protein was enriched with, or labelled near, the bait; the list need not be complete.

B1: Argonaute 2 (Ago2), endogenous in Aag2 cells (protein, UniProt C5J0H4 1-992)
chain: MILNARYLYIPCRQKQQQQQQQPQQQQQHQQKQQSQQQQQQQQQQQRSKEQGSQQQQRPQQQAQQQQPSQQQQQSQKQQHPQQQQQQRPQKQQQQFQQDQRPQQQQQQLQKQQQQQGQSWRPQSHDPSPASGSHSHSSSPSHAAALERVEEDFSKIKIDKQKIHSSALLPVLMRPNAHGTRGRAIKVEVNYIQLLLERLIPTAYHYDVDIQPAASRKWQRLAFSEFTKQMFPNHGFAFDGHKNAYAARRLQADVYEQEVKVRDEGRERRFKVAMKEAAVLDMTCLKTYMNNGSTLDKPMSAIQCLDIVLRTAYENNPRFIKFKKSIYVKPDRPDDIGSNHELWYGLFQSALLGARPFLNIDVSHKAFPTGGPVLRILVDMNRGQVPDRVTDWMSRDLHDFLKGMELSYTGPDGVSKLFKYNSIKSPANQQKFKLENGTEMTIDQYFRSKNKQLRYPSLPVLHVGSLVRNVMLPIELCSIPPGQALNKKHPDQCTQFIIRKSATDTATRKRKIMDLFNQIGYNNAPTIKEFGVSVGNNFETVDGRILDPPELSYRNDRRVKPMRGVWRADNMNFIIPSTEITRRELSWTILNLDGRTRPDAIDEFGRNIYQMSLKQGVQLQQFSMKNNFYEPRDMRFAVKDLDNIFDELKKRKIDLVFVVIPSPGRDGDVYAKVKQKAELCVGLLTQCIKSFTLDKKRGDMSTISNIWLKINAKTNGSNHVLAKNFKPPIARKTVMYVGADVTHPSPEQTNIPSVVGVAASYDLEGFRYNCCYRLQGPKDEMIRDLQNIVIKQLRQFKQTNQSLPELIMYYRDGVSEGQFQEVLTIELRAMQAAAASVQQGYKPNITFIVVQKRHHARFFPTANCPTEGRNNNVQPGTIVDRYITAPNQYQFFLVSHAAVQGVAKPTKYCVLYDDENCNPDQLQALTYYLCHMFTRCNRAVSYPAPTYYAHLAAYRGRVYIKDRPLNMNNLTKEYERMQIRTEIQDGHPMFFV
As to B1, the binding result is listed as “binds”.
